Laboratory results: PubChem BioAssay AID314 (DTP/NCI, 2004)
The list does not hold the whole screen: it gathers tests that were run many times, whatever their T/C, doses with no T/C, and many T/C values between a quarter and a half above the control. Further doses and runs are listed elsewhere. T/C gives the treated animals as a percentage of the vehicle group. Some entries give survivors of the animals treated and no T/C: the source holds a T/C of zero for them, seemingly a mark for toxic or unscored doses. Some survivor counts are full or nearly so, which does not show that the dose was tolerated: the source hardly ever lists a survival T/C far under the control, and the zero likely stands for such cases as well. Survivors were counted at the toxicity check, usually on the fifth day, unless a day is given; later deaths do not show. Schedules are NCI's codes, read here as Q, the interval in days (D) or hours (H), X, the number of doses. Some doses were run more than once; the results are listed from low to high. Where survival is the endpoint, the PubChem record calls one and a half times the control and up active, and a quarter to a half above the control has no call in these data; cut-offs in other NCI protocols can differ. Some T/C values are followed by the survivors on the day toxicity was checked, most often the fifth; without a count, all were alive then. Counts like (3×) stand for listed records that agree.

System: DBA/2 mice, P1534 leukemia ip, survival T/C
Experiment: NCI In Vivo Anticancer Drug Screen. Data for tumor model P1534 Leukemia (intraperitoneal) in DBA/2 mice
Details: T/C endpoint: mean survival time, higher T/C = longer survival
Method: The antitumor activity of compounds was measured in mice bearing transplantable tumors. Survival or tumor size were measured and the results are expressed as the measurement made in the treated group (T) divided by the measurement made in the vehicle treated control group (C). The tumor model used in this assay is P1534 Leukemia (intraperitoneal) in DBA/2 mice

[1] = dose: 5.0 mg/kg/injection, schedule: Q01DX010 (ip), vehicle: saline
[2] = dose: 10.0 mg/kg/injection, schedule: Q01DX010 (ip), vehicle: saline
[3] = dose: 20.0 mg/kg/injection, schedule: Q01DX010 (ip), vehicle: saline
[4] = dose: 40.0 mg/kg/injection, schedule: Q01DX010 (ip), vehicle: saline
[5] = dose: 250.0 mg/kg/injection, schedule: Q01DX010 (ip), vehicle: saline
[6] = dose: 1000.0 mg/kg/injection, schedule: Q01DX010 (ip), vehicle: saline
[7] = dose: 25.0 mg/kg/injection, schedule: Q01DX010 (ip), vehicle: saline
[8] = dose: 100.0 mg/kg/injection, schedule: Q01DX010 (ip), vehicle: saline
[9] = dose: 2.5 mg/kg/injection, schedule: Q01DX010 (ip), vehicle: saline
[10] = dose: 4.0 mg/kg/injection, schedule: Q01DX010 (ip), vehicle: saline
[11] = dose: 62.5 mg/kg/injection, schedule: Q01DX010 (ip), vehicle: saline
[12] = dose: 500.0 mg/kg/injection, schedule: Q01DX010 (ip), vehicle: saline
[13] = dose: 32.0 mg/kg/injection, schedule: Q01DX010 (ip), vehicle: saline
[14] = dose: 64.0 mg/kg/injection, schedule: Q01DX010 (ip), vehicle: saline
[15] = dose: 50.0 mg/kg/injection, schedule: Q01DX010 (ip), vehicle: saline
[16] = dose: 200.0 mg/kg/injection, schedule: Q01DX010 (ip), vehicle: saline
[17] = dose: 400.0 mg/kg/injection, schedule: Q01DX010 (ip), vehicle: saline
[18] = dose: 15.0 mg/kg/injection, schedule: Q01DX010 (ip), vehicle: saline
[19] = dose: 125.0 mg/kg/injection, schedule: Q01DX010 (ip), vehicle: saline
[20] = dose: 0.5 mg/kg/injection, schedule: Q01DX010 (ip), vehicle: saline
[21] = dose: 1.0 mg/kg/injection, schedule: Q01DX010 (ip), vehicle: saline
[22] = dose: 2.0 mg/kg/injection, schedule: Q01DX010 (ip), vehicle: saline
[23] = dose: 1.25 mg/kg/injection, schedule: Q01DX010 (ip), vehicle: saline
[24] = dose: 6.25 mg/kg/injection, schedule: Q01DX010 (ip), vehicle: saline
[25] = dose: 12.5 mg/kg/injection, schedule: Q01DX010 (ip), vehicle: saline

Structure (SMILES): CN(Cc1cnc2nc(N)nc(N)c2n1)c1c(Cl)cc(C(=O)NC(CCC(=O)O)C(=O)O)cc1Cl (centres undefined)
- survivor count [1]: 6 of 6
- T/C [2]: 125 % of control
- survivor count [2]: 6 of 6
- survivor count [3]: 6 of 6
- survivor count [4]: 6 of 6
- survivor count (dose: 80.0 mg/kg/injection, schedule: Q01DX010 (ip), vehicle: saline): 5 of 6

Structure (SMILES): CC[n+]1c(-c2ccccc2)c2cc(N)ccc2c2ccc(N)cc21
- survivor count [3]: 4 of 6
- survivor count [4]: 0 of 6

Structure (SMILES): O=c1[nH]c(=O)n(C2CC(O)C(CO)O2)cc1I (centres undefined)
- T/C [5]: 125 % of control
- survivor count [6]: 6 of 6
- survivor count (dose: 2000.0 mg/kg/injection, schedule: Q01DX010 (ip), vehicle: saline): 4 of 6

Structure (SMILES): C=C(C(=O)OC1CC2CCC(C1)N2C)c1ccccc1 (centres undefined)
- survivor count [2]: 5 of 6
- survivor count [3]: 0 of 6
- survivor count [4]: 0 of 6

Structure (SMILES): NC(=O)c1ccc(N)nc1
- survivor count (dose: 0.75 mg/kg/injection, schedule: Q01DX010 (ip), vehicle: saline): 3 of 6
- T/C (dose: 1.5 mg/kg/injection, schedule: Q01DX010 (ip), vehicle: saline): 126 % of control
- survivor count (dose: 6.0 mg/kg/injection, schedule: Q01DX010 (ip), vehicle: saline): 5 of 6

Structure (SMILES): COS(C)(=O)=O
- survivor count [7]: 6 of 6
- survivor count [8]: 6 of 6

Structure (SMILES): CCOC(=O)NP(=O)(N1CC1(C)C)N1CC1(C)C (centres undefined)
- survivor count [5]: 6 of 6

Structure (SMILES): O=C(O)c1[nH]c(=O)[nH]c(=O)c1F
- survivor count [9]: 6 of 6
- survivor count [1]: 5 of 6
- survivor count [2]: 6 of 6
- survivor count [3]: 6 of 6
- survivor count [4]: 6 of 6

Structure (SMILES): NC(=O)N(CCCl)N=O
- survivor count [10]: 5 of 6

Structure (SMILES): Nc1nc2n[nH]nc2c(=O)[nH]1
- T/C (dose: 400.0 mg/kg/injection, schedule: Q01DX010 (ip), vehicle: alkali diluted with saline): 131 and 142 % of control

Structure (SMILES): N=C(N)N
- survivor count (dose: 424.0 mg/kg/injection, schedule: Q01DX010 (ip), vehicle: saline): 0 of 6

Structure (SMILES): O=C(OCC1OC(n2cnc3c(=S)nc[nH]c32)C(OC(=O)c2ccccc2)C1OC(=O)c1ccccc1)c1ccccc1 (centres undefined)
- survivor count [11]: 4 of 6
- survivor count [12]: 5 of 6

Structure (SMILES): CCCCn1cnc2c(=S)nc[nH]c21
- survivor count (dose: 256.0 mg/kg/injection, schedule: Q01DX010 (ip), vehicle: saline): 6 of 6

Structure (SMILES): CCn1cnc2c(=S)nc[nH]c21
- T/C (dose: 8.0 mg/kg/injection, schedule: Q01DX010 (ip), vehicle: saline): 92 and 100 % of control (3×)
- T/C (dose: 16.0 mg/kg/injection, schedule: Q01DX010 (ip), vehicle: saline): 100 (3×) and 103 % of control
- T/C [13]: 92, 96, 100 [5 of 6 alive], 103 % of control
- T/C [14]: 100 (3×) and 103 % of control

Structure (SMILES): OC(CBr)C(O)C(O)C(O)CBr (centres undefined)
- survivor count [15]: 6 of 6
- survivor count [16]: 6 of 6
- survivor count [17]: 4 of 6

Structure (SMILES): C1CCNC1
- survivor count (dose: 0.78 mg/kg/injection, schedule: Q01DX010 (ip), vehicle: saline): 6 of 6

Structure (SMILES): O=C(Nc1ccc(C2=NCCN2)cc1)c1ccc(C(=O)Nc2ccc(C3=NCCN3)cc2)c(Cl)c1
- survivor count [14]: 2 of 6 and 3 of 6
- survivor count (dose: 128.0 mg/kg/injection, schedule: Q01DX010 (ip), vehicle: saline): 0 of 6

Structure (SMILES): N#CCSc1ncnc2nc[nH]c12
- survivor count (dose: 7.5 mg/kg/injection, schedule: Q01DX010 (ip), vehicle: saline): 6 of 6
- survivor count [18]: 6 of 6
- survivor count (dose: 30.0 mg/kg/injection, schedule: Q01DX010 (ip), vehicle: saline): 6 of 6

Structure (SMILES): Nc1nc(SCc2ccccc2)c2[nH]cnc2n1
- survivor count [11]: 6 of 6
- survivor count [14]: 6 of 6
- survivor count [19]: 6 of 6
- survivor count [5]: 6 of 6

Structure (SMILES): O=CCC(O)C(O)C(O)CO (centres undefined)
- survivor count [6]: 6 of 6

Structure (SMILES): COC12C(COC(N)=O)C3=C(C(=O)C(C)=C(N)C3=O)N1CC1C2N1C (centres undefined)
- survivor count (dose: 20.0 mg/kg/injection, schedule: Q01DX010 (sc), vehicle: saline): 6 of 6

Structure (SMILES): CSc1ncnc2c1ncn2C1OC(CO)C(O)C1O (centres undefined)
- survivor count [13]: 5 of 6 and 6 of 6

Structure (SMILES): CC(=O)c1cccc(NC2C(N)C(NC(=O)N(C)C)(C(C)O)C(C)(O)C2(O)COC(=O)c2c(C)cccc2O)c1 (centres undefined)
- survivor count [20]: 6 of 6
- survivor count [21]: 5 of 6
- survivor count [22]: 0 of 6

Structure (SMILES): O=c1[nH]c(=O)n(C2CC(O)C(CO)O2)cc1Br (centres undefined)
- survivor count [12]: 6 of 6

Structure (SMILES): N=[N+]=CC(=O)OCC(N)C(=O)O (centres undefined)
- T/C [10]: 129 % of control

Structure (SMILES): COC1C(OC(N)=O)C(O)C(Oc2ccc3c(O)c(NC(=O)c4ccc(O)c(CC=C(C)C)c4)c(=O)oc3c2C)OC1(C)C (centres undefined)
- survivor count [17]: 0 of 6

Structure (SMILES): c1ccc(CCSc2ncnc3nc[nH]c23)cc1
- survivor count [6]: 3 of 6

Structure (SMILES): CC(=O)NC1=C(N2CC2)C(=O)C(NC(C)=O)=C(N2CC2)C1=O
- survivor count (dose: 0.25 mg/kg/injection, schedule: Q01DX010 (ip), vehicle: saline): 6 of 6
- survivor count [20]: 6 of 6
- survivor count [21]: 6 of 6
- survivor count [22]: 4 of 6

Structure (SMILES): COc1cc([C@@H]2c3cc4c(c(O)c3C[C@H]3COC(=O)[C@@H]32)OCO4)cc(OC)c1OC
- survivor count (dose: 0.31 mg/kg/injection, schedule: Q01DX010 (ip), vehicle: saline): 5 of 6
- survivor count (dose: 0.63 mg/kg/injection, schedule: Q01DX010 (ip), vehicle: saline): 5 of 6
- survivor count [23]: 6 of 6
- survivor count [9]: 6 of 6
- survivor count (dose: 313.0 micrograms/kg/injection, schedule: Q01DX010 (ip), vehicle: saline): 5 of 6

Structure (SMILES): O=C1C(NC(=O)C2CCCCC2)=C(N2CC2)C(=O)C(NC(=O)C2CCCCC2)=C1N1CC1
- survivor count [15]: 6 of 6
- survivor count [8]: 6 of 6
- survivor count [16]: 6 of 6
- survivor count [17]: 0 of 6

Structure (SMILES): O=C1C=CC2(CCC23C=CC(=O)O3)O1 (centres undefined)
- survivor count [8]: 3 of 6
- survivor count [16]: 0 of 6
- survivor count [17]: 0 of 6

Structure (SMILES): CCNNC(=O)[C@@H]1[C@H](c2cc(OC)c(OC)c(OC)c2)c2cc3c(cc2[C@H](O)[C@H]1CO)OCO3
- survivor count [13]: 6 of 6
- survivor count [14]: 5 of 6 and 6 of 6

Structure (SMILES): COc1cc2c3c(c4ccc(OC)c(OC)c4c2cc1OC)CN1CCC[C@@H]1C3
- survivor count [23]: 6 of 6
- T/C [1]: 88 [5 of 6 alive], 100 [5 of 6 alive], 107 % of control
- survivor count [1]: 6 of 6
- survivor count [2]: 6 of 6
- survivor count [18]: 6 of 6
- survivor count [3]: 3 of 6, 5 of 6, 6 of 6

Structure (SMILES): CN(C)Cc1c[nH]c2ccccc12
- survivor count [11]: 4 of 6
- survivor count [19]: 0 of 6

Structure (SMILES): C[C@@H](N)[C@@H](O)c1ccccc1
- survivor count [24]: 6 of 6
- survivor count [25]: 5 of 6
- survivor count [7]: 5 of 6

Structure (SMILES): O=NN(CCCl)C(=O)NCCCl
- survivor count [24]: 6 of 6
- survivor count [25]: 5 of 6 and 6 of 6
